# PubChem BioAssay AID1159578, Peter MacCallum Cancer Centre – 2015
# Aim: 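Genome-wide hunt for genes controlling movement of lymphatic endothelial cells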 (primary screen)
# Cell system: human lymphatic endothelial cells
# Reagent: siRNA pool against human genes, 40 nM
# Duration: 48 h after transfection
# Measured: 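High-content imaging of dye-stained cells in a scratch assay measures filled wound area and nuclei per well; duplicate means given as ratio to mock and robust z-score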
# Direction: migration robust z-score: higher = faster migration into the scratch; nuclei per well: higher = more cells in the well
# Call rule: 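Pools averaging fewer than 3300 nuclei are never called; remaining pools count as changed when migration robust z lies outside -2 to 2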
# Meaning of the calls: active = migration changed; inactive = no migration change, or too few cells
# Shown is a random part of about 18,000 reagents tested. Over the whole deposit, about 1,030 (5.7%) are marked active. 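Inactive calls also include pools with fewer than 3300 nuclei, whose migration was not assessed.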 Raw values are not corrected between plates. Entries without a mark were called inactive. Not all columns of the deposit are shown.
gene,migration robust z-score,migration class with cell-count check,"nuclei per well, duplicate mean"
RP1L1,-0.77,migration z between -2 and 2; enough cells,5236
LCE3E,-0.6,migration z between -2 and 2; enough cells,6258
ADH7,-2.59,under 3300 nuclei; migration not judged,2794
ZNF711,0.36,migration z between -2 and 2; enough cells,6781
CLEC12B,-0.08,migration z between -2 and 2; enough cells,5646
SPSB1,-1.32,migration z between -2 and 2; enough cells,5166
ZNG1C,0.74,migration z between -2 and 2; enough cells,6265
SLC25A51,0.61,migration z between -2 and 2; enough cells,5322
ST3GAL3,-0.02,migration z between -2 and 2; enough cells,4204
G0S2,-0.23,migration z between -2 and 2; enough cells,5422
SCMH1,0.86,migration z between -2 and 2; enough cells,4392
SNRPN,0.08,migration z between -2 and 2; enough cells,5396
SAMD5,-1.02,migration z between -2 and 2; enough cells,6270
MLC1,-0.52,migration z between -2 and 2; enough cells,5582
CAND2,-0.05,migration z between -2 and 2; enough cells,5693
GAL3ST1,-0.37,migration z between -2 and 2; enough cells,7224
MCM10,0.8,migration z between -2 and 2; enough cells,4111
CLVS1,-0.67,migration z between -2 and 2; enough cells,5741
ZNF106,0.42,migration z between -2 and 2; enough cells,6072
TFPI,0.86,migration z between -2 and 2; enough cells,6696
SRP14,0.21,migration z between -2 and 2; enough cells,4996
CASP7,-0.8,migration z between -2 and 2; enough cells,5516
DYSF,0.5,migration z between -2 and 2; enough cells,7486
DDN,-0.09,migration z between -2 and 2; enough cells,5758
OR1C1,-1.03,migration z between -2 and 2; enough cells,4972
EPS15,0.98,migration z between -2 and 2; enough cells,5650
KCNMB3,-1.4,migration z between -2 and 2; enough cells,4013
ADPRH,-0.69,migration z between -2 and 2; enough cells,6281
ABHD10,1.56,migration z between -2 and 2; enough cells,6532
OR5AS1,0.07,migration z between -2 and 2; enough cells,5913
CBLN1,0.14,migration z between -2 and 2; enough cells,5048
PIGH,0.54,migration z between -2 and 2; enough cells,6899
HEATR6,0.58,migration z between -2 and 2; enough cells,5476
SEMA3C,-1.44,migration z between -2 and 2; enough cells,4049
VTI1A,0.46,migration z between -2 and 2; enough cells,4488
FOXK1,0.14,migration z between -2 and 2; enough cells,5843
GNGT1,-0.06,migration z between -2 and 2; enough cells,5918
REXO1,0.28,migration z between -2 and 2; enough cells,5421
CD300E,-2.02 (active),migration z below -2; enough cells,6248
SIRPA,-1.4,migration z between -2 and 2; enough cells,4178
ANKRD40,-0.66,migration z between -2 and 2; enough cells,6231
PDLIM7,-0.82,migration z between -2 and 2; enough cells,4900
THG1L,0.1,migration z between -2 and 2; enough cells,5073
HTR6,-0.68,migration z between -2 and 2; enough cells,5928
EBAG9,-0.12,migration z between -2 and 2; enough cells,7446
USP29,1.02,migration z between -2 and 2; enough cells,5324
CT47A6,-0.52,migration z between -2 and 2; enough cells,6927
CYP4A22,1.09,migration z between -2 and 2; enough cells,5420
BEX1,0.92,migration z between -2 and 2; enough cells,4960
DYNLL2,1.19,migration z between -2 and 2; enough cells,5324
GABPA,0.26,migration z between -2 and 2; enough cells,5587
NR0B1,-0.94,migration z between -2 and 2; enough cells,5736
TAF6,0.8,migration z between -2 and 2; enough cells,5147
BCAM,-0.02,migration z between -2 and 2; enough cells,6478
ZEB1,-1.03,migration z between -2 and 2; enough cells,5926
PDZD8,-1.02,migration z between -2 and 2; enough cells,5483
NANOG,-0.31,migration z between -2 and 2; enough cells,5257
ATP5F1C,0.65,migration z between -2 and 2; enough cells,6676
HLA-DPB1,-0.86,migration z between -2 and 2; enough cells,6124
COL24A1,-0.7,migration z between -2 and 2; enough cells,5678
ZC3H14,1.25,migration z between -2 and 2; enough cells,5600
CEP131,-0.02,migration z between -2 and 2; enough cells,5282
ZBTB12,0.52,migration z between -2 and 2; enough cells,6524
LYST,-0.26,under 3300 nuclei; migration not judged,1757
GNB3,-0.37,migration z between -2 and 2; enough cells,6391
CBFB,1.27,migration z between -2 and 2; enough cells,5383
ZNF367,1.11,migration z between -2 and 2; enough cells,5574
ATOSA,-0.08,migration z between -2 and 2; enough cells,5359
ARPP21,0.38,migration z between -2 and 2; enough cells,5940
DIABLO,-0.68,migration z between -2 and 2; enough cells,4766
POLR3K,0.3,migration z between -2 and 2; enough cells,5752
CD3E,-1.72,migration z between -2 and 2; enough cells,4421
ACVRL1,-1.64,migration z between -2 and 2; enough cells,4450

11 entries from above, sorted by “migration robust z-score”, low to high.
gene,migration robust z-score,migration class with cell-count check,"nuclei per well, duplicate mean"
SEMA3C,-1.44,migration z between -2 and 2; enough cells,4049
KCNMB3,-1.4,migration z between -2 and 2; enough cells,4013
OR1C1,-1.03,migration z between -2 and 2; enough cells,4972
ADPRH,-0.69,migration z between -2 and 2; enough cells,6281
OR5AS1,0.07,migration z between -2 and 2; enough cells,5913
CBLN1,0.14,migration z between -2 and 2; enough cells,5048
VTI1A,0.46,migration z between -2 and 2; enough cells,4488
PIGH,0.54,migration z between -2 and 2; enough cells,6899
HEATR6,0.58,migration z between -2 and 2; enough cells,5476
EPS15,0.98,migration z between -2 and 2; enough cells,5650
ABHD10,1.56,migration z between -2 and 2; enough cells,6532
